Assay [1] concerns the target T1, biotinylated ParT (WT), ParB-like protein of plasmid SCP2 (Streptomyces coelicolor) (UniProt Q8VWE5).
T1 sequence (chain, biotin (site and way of biotinylation not stated)): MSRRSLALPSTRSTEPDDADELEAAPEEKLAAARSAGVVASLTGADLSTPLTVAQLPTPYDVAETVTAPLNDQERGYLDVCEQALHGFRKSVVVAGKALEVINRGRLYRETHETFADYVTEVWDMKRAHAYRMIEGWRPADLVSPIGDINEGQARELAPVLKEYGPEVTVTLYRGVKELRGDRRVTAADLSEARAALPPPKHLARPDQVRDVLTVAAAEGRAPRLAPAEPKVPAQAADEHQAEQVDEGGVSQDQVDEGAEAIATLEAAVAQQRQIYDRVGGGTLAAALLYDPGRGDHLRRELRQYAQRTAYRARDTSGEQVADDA
In words: condition: only 1 µM ParA with 0.05 mg/mL nonspecific DNA, without ATP; BLI; biotinylated ParT immobilised on streptavidin probes; 1 µM ParA-His6 with 0.05 mg/mL nonspecific (salmon sperm) DNA, no ATP; 100 mM Tris-HCl pH 8, 150 mM NaCl, 1 mM MgCl2, 0.005% Tween-20; both purified.

Assay [2] concerns the target T1, biotinylated ParT (WT), ParB-like protein of plasmid SCP2 (Streptomyces coelicolor). In words: BLI; biotinylated ParT (WT or ΔN3) immobilised on streptavidin probes; 1 µM ParA-His6 preincubated on ice for 20 min with 1 mM ATP and 0.05 mg/mL salmon sperm DNA; 100 mM Tris-HCl pH 8, 150 mM NaCl, 1 mM MgCl2, 0.005% Tween-20; both purified. A general note: In BLI a coated tip is dipped into the sample, and binding shifts an interference pattern.

For assay [3] the target is unchanged. In words: condition: only 1 µM ParA with 1 mM ATP, without DNA; BLI; biotinylated ParT immobilised on streptavidin probes; 1 µM ParA-His6 with 1 mM ATP, no DNA; 100 mM Tris-HCl pH 8, 150 mM NaCl, 1 mM MgCl2, 0.005% Tween-20; both purified.
Assay [4] shares this target. In words: condition: only 1 µM ParA alone, without ATP and without DNA; BLI; biotinylated ParT immobilised on streptavidin probes; 1 µM ParA-His6 alone (apo-ParA, no ATP, no DNA); 100 mM Tris-HCl pH 8, 150 mM NaCl, 1 mM MgCl2, 0.005% Tween-20; both purified.

No constants are given. Whether binding was seen depends on the method and setting. For some of these results: Binding can be weak; no strength is given. Sequences can lack the tags named with a protein.

With “ParA-His6, ParA of plasmid SCP2 (Streptomyces coelicolor) (enzyme)”, the binding result is listed as “no binding” in assay [1], “binds” in assay [2], “no binding” in assay [3] and “no binding” in assay [4].

(Values after publication PMC12260392, “Expanding the diversity of bacterial DNA partitioning: A CTP-independent ParABS system for plasmid partitioning in Streptomyces” (Proceedings of the National Academy of Sciences of the …, 2025).)
